These are yes or no findings as the source states them, for the method shown. In cells and extracts the contact can be indirect. These calls come from enrichment with a bait or labelling near it, and not all partners need be listed. For some of these results: A no says only that the protein was not detected with the bait.
Key:
[1] = target: double-tagged HSF2α (CTAP-HSF2α) (mouse) (UniProt P38533); assay: affinity purification with mass spectrometry; double-affinity TAP-TAG: nuclear extracts of HeLa-S3 cells stably expressing double-tagged HSF2α or HSF2β on IgG-agarose overnight, washes in Tris 50 mM, NP40 0.1%, 150 mM, TEV elution, Dynabeads streptavidin, elution with D-biotin 5 mM; LC/MS/MS; empty vector as control
[2] = target: endogenous HSF2 protein of the mouse fetal cortex (mouse (endogenous in fetal cortex)) (UniProt P38533); assay: affinity purification with mass spectrometry; endogenous HSF2 immunoprecipitated (monoclonal antibody 3E2, protein G agarose; PBS as control) from extracts of E17 mouse cortices (10 mM HEPES pH 7.9, 400 mM NaCl, 5% glycerol, EGTA); gel bands analysed by LC/MS/MS
[3] = target: double-tagged HSF2β (CTAP-HSF2β) (mouse) (UniProt P38533); assay: affinity purification with mass spectrometry; double-affinity TAP-TAG: nuclear extracts of HeLa-S3 cells stably expressing double-tagged HSF2α or HSF2β on IgG-agarose overnight, washes in Tris 50 mM, NP40 0.1%, 150 mM, TEV elution, Dynabeads streptavidin, elution with D-biotin 5 mM; LC/MS/MS; empty vector as control

Protein sequences, listed by entry. Tags and fused reporters are not part of them. Lines headed by an entry give the natural chain unless they say otherwise; changes in a name come on top. Chains listed by the source or under a name are the forms on record and can include a tag or linker.
UniProt P38533: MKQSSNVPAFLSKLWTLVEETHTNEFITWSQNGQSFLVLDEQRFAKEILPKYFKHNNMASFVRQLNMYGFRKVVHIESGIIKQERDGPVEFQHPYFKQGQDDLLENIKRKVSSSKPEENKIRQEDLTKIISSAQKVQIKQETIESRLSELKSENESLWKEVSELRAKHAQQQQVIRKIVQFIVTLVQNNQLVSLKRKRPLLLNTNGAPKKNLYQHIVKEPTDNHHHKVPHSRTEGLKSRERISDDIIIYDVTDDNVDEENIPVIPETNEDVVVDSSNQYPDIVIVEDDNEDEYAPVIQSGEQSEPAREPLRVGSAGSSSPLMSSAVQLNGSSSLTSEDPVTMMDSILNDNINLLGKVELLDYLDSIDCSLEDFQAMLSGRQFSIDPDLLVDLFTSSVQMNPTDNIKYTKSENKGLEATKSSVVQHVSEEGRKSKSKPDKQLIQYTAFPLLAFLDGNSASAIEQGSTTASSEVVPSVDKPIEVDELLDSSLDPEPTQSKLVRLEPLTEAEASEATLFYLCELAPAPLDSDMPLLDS
double-tagged HSF2β (CTAP-HSF2β) (P38533, form named): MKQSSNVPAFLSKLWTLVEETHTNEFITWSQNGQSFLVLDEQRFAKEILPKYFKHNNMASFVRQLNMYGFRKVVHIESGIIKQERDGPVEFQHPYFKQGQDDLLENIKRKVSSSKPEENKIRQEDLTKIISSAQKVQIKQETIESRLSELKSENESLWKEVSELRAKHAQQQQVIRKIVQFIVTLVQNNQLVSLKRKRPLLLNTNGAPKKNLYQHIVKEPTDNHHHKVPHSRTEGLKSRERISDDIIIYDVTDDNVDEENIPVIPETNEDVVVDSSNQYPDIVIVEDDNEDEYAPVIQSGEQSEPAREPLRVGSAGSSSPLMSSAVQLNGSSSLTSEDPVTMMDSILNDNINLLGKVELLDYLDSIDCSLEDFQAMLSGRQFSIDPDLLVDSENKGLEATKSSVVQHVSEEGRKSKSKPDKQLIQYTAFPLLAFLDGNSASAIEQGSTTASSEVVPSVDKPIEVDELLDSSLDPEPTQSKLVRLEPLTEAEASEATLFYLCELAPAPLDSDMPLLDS
UniProt P37198: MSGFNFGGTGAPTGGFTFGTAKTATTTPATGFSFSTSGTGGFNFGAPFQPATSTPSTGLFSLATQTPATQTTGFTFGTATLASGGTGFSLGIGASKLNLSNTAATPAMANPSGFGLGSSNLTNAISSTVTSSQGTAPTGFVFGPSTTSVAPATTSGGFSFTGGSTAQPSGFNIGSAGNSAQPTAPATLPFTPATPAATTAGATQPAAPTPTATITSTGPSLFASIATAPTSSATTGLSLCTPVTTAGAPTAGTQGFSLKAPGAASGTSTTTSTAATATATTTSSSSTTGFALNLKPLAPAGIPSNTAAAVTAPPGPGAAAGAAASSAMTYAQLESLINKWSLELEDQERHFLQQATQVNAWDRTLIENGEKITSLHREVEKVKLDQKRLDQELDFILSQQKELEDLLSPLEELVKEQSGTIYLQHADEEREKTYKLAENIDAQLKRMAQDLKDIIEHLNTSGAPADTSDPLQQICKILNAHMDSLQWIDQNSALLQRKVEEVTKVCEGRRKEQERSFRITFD
UniProt O09106: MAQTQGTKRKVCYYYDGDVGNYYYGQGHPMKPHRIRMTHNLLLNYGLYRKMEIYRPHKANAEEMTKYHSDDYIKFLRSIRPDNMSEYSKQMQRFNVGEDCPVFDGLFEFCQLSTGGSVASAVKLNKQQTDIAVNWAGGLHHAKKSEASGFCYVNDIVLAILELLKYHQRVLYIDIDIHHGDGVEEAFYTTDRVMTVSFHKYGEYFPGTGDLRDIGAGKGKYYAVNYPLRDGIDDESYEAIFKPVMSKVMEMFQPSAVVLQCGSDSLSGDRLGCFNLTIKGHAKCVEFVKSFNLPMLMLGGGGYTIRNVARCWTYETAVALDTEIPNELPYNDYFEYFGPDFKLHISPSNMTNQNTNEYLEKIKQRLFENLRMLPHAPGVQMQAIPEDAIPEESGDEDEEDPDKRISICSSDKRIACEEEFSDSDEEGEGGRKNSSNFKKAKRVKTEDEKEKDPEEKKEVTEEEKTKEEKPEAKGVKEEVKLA
UniProt Q03933: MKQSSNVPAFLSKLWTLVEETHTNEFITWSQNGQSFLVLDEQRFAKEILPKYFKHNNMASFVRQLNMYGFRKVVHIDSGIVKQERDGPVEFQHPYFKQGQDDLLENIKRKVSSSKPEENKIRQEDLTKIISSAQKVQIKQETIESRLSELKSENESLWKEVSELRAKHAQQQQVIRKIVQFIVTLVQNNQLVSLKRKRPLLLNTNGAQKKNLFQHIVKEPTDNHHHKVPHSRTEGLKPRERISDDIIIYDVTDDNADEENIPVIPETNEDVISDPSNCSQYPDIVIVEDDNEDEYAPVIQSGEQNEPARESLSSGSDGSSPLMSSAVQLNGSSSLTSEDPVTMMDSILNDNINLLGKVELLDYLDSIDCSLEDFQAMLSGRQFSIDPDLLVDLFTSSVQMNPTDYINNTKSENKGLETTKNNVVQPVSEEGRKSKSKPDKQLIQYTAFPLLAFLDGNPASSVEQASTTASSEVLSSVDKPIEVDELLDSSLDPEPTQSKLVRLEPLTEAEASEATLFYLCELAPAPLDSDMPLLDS
UniProt O15379: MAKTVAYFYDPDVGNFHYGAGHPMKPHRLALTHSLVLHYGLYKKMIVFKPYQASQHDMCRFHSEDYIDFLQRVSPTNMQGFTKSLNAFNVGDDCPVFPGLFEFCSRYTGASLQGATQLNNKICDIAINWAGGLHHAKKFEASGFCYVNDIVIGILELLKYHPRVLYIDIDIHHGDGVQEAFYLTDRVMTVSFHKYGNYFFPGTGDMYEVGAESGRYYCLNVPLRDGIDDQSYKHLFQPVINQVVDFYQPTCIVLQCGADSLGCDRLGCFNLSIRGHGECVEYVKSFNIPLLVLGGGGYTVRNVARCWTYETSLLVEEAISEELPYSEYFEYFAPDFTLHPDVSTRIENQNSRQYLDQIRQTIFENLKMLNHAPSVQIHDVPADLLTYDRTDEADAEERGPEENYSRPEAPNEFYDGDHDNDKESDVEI
UniProt P62259: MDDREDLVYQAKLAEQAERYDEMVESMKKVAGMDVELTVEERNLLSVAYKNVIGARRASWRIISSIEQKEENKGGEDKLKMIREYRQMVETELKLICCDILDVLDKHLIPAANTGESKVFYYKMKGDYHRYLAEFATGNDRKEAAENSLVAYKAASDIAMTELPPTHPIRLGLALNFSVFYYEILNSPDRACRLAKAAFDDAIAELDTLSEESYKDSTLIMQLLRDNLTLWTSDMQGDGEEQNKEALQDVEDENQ
UniProt P26039: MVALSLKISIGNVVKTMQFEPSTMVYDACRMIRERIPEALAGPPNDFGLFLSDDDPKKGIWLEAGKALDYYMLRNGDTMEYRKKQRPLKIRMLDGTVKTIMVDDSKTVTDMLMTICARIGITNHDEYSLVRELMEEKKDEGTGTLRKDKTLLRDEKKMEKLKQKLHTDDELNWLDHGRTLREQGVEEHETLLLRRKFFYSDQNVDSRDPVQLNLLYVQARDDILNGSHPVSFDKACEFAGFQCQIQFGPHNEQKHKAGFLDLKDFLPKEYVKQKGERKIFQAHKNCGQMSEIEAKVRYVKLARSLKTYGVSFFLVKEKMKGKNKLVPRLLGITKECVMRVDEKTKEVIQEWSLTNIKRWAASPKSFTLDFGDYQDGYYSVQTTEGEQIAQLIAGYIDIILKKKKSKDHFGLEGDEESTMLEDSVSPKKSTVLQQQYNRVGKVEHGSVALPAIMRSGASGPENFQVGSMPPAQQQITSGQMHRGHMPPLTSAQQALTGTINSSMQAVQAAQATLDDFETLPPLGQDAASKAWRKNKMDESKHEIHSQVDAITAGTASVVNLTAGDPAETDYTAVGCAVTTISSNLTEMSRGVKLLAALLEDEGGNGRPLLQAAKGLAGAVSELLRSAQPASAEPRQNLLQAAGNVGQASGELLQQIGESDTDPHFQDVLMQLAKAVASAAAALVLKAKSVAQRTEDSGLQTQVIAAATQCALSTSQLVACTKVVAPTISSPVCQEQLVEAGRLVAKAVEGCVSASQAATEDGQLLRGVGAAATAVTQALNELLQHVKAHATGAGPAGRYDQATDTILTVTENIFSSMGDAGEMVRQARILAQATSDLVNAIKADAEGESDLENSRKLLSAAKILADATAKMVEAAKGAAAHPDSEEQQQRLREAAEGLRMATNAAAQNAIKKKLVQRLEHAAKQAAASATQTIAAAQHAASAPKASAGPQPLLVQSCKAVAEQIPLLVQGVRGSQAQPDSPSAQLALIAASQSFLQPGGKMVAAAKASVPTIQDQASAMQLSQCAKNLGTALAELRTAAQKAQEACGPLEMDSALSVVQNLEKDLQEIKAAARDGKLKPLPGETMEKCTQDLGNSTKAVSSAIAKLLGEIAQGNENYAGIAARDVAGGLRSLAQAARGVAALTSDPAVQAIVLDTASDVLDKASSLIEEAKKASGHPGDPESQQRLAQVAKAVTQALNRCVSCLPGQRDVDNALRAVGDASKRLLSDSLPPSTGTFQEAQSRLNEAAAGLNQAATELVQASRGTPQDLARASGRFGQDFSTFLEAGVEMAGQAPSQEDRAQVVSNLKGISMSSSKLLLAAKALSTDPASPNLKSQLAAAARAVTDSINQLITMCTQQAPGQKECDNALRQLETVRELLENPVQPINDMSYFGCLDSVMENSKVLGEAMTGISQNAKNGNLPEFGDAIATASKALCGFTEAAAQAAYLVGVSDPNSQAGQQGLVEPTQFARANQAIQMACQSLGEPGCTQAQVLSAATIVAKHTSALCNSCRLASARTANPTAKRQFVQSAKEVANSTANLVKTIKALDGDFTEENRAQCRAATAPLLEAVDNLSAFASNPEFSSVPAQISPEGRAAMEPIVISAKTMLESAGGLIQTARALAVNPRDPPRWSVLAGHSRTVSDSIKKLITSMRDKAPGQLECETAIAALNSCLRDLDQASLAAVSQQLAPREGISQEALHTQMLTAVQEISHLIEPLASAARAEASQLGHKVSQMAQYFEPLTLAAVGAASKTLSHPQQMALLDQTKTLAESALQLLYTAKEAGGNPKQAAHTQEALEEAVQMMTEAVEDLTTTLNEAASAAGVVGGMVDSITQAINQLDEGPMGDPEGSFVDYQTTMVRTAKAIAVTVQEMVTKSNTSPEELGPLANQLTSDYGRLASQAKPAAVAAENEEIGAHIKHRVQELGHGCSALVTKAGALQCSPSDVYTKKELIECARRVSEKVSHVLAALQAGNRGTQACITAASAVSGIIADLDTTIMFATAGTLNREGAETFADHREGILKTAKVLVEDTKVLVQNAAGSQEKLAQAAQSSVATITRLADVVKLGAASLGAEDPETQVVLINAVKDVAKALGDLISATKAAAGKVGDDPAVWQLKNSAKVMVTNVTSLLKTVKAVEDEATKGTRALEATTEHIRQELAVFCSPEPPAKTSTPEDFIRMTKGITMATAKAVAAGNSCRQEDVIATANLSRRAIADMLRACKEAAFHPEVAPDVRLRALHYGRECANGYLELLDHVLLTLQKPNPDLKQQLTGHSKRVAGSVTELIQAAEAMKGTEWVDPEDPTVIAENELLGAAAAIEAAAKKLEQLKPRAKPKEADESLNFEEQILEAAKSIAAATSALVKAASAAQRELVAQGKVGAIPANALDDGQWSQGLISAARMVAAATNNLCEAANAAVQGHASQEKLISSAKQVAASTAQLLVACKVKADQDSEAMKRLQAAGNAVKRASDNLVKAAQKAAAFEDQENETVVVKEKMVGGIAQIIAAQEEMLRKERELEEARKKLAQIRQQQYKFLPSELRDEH
UniProt Q92769: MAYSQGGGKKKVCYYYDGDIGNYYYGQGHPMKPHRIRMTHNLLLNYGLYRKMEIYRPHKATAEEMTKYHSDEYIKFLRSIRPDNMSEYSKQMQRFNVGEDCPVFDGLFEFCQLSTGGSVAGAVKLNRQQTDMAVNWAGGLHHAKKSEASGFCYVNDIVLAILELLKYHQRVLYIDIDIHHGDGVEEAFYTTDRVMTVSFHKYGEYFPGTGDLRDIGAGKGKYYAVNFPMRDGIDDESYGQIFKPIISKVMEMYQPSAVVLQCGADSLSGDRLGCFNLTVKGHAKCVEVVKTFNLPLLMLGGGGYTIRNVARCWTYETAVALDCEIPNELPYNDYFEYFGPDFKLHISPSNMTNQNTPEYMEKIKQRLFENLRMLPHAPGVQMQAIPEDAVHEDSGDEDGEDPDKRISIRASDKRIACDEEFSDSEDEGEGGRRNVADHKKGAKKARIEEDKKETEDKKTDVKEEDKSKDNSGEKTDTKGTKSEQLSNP

| binding [1] | binding [2] | binding [3] | Substance |
| --- | --- | --- | --- |
| binds |  |  | Nuclear pore glycoprotein p62 (from UniProt P37198 1-522) |
|  | binds |  | lysine-deacetylase HDAC1, mouse (from UniProt O09106 1-482) (enzyme) |
| binds |  | binds | Heat Shock Factor HSF2 (identified in the TAP-TAG eluates, matched to HSF2_HUMAN) (from UniProt Q03933 1-536) |
| no binding |  | no binding | HDAC3, human (from UniProt O15379 1-428) (enzyme) |
|  | binds |  | Ywhae 14-3-3 protein epsilon (from UniProt P62259 1-255) |
| binds |  | binds | lysine-deacetylase HDAC1 (histone-deacetylase 1), human (from UniProt Q13547 1-482) (enzyme) |
|  | binds |  | DNA Topoisomerase 2a (from UniProt Q01320 1-1528) (enzyme) |
|  | binds |  | Talin-1 (from UniProt P26039 1-2541) |
| no binding |  | no binding | HDAC2, human (from UniProt Q92769 1-488) (enzyme) |
